Publication PMC7909837, “Function and Regulation of Chloroplast Peroxiredoxin IIE” (Antioxidants, 2021)
Results are given in words; binding and its absence hold for the method and conditions named. Some entries that bind do so weakly or less than the wild type. Where a sequence is shown, tags or fusion partners need not be part of it.

T1: 14-3-3 υ protein, recombinant (A. thaliana, UniProt P42645 1-268)
T1 construct: 14-3-3 υ, A. thaliana, AT5G16050; construct and tags not described
T1 sequence (looked up): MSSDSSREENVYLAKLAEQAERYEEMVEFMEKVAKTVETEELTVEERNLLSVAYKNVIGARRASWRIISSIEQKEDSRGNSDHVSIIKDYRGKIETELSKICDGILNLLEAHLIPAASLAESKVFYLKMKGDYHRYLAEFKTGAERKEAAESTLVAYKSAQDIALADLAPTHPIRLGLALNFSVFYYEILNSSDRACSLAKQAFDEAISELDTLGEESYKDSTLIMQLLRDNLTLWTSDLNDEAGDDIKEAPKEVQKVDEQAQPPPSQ


biological target: T1, 14-3-3 υ protein, recombinant; experiment: far-Western, overlay or dot blot; dilution series of recombinant 14-3-3 υ spotted on nitrocellulose; incubated with PRX-IIE or its phospho-mimicry variants in TBS with either 1 mM DTT or 100 µM H2O2 overnight at 4 °C; detected with anti-PRX-IIE antibody; spots quantified with ImageJ; both purified

binding	Binder
binds	Peroxiredoxin IIE (PRX-IIE), wild type, His6-tagged recombinant (enzyme, A. thaliana, UniProt Q949U7 71-234, looked up, Peroxiredoxin IIE, A. thaliana, AT3G52960, cloned into pET28a (NdeI/BamHI); also called PRX-IIE WT; WT PRX-IIE; source: E. coli BL21 (DE3)pLysS, purified (Ni-NTA, dialysis)) ASISVGDKLPDSTLSYLDPSTGDVKTVTVSSLTAGKKTILFAVPGAFTPTCSQKHVPGFVSKAGELRSKGIDVIACISVNDAFVMEAWRKDLGINDEVMLLSDGNGEFTGKLGVELDLRDKPVGLGVRSRRYAILADDGVVKVLNLEEGGAFTNSSAEDMLKAL
binds	PRX-IIE T223E phospho-mimicry variant (enzyme, UniProt Q949U7 71-234) ASISVGDKLPDSTLSYLDPSTGDVKTVTVSSLTAGKKTILFAVPGAFTPTCSQKHVPGFVSKAGELRSKGIDVIACISVNDAFVMEAWRKDLGINDEVMLLSDGNGEFTGKLGVELDLRDKPVGLGVRSRRYAILADDGVVKVLNLEEGGAFENSSAEDMLKAL

Further lines, the binder ahead of its results:

Binder	binding
PRX-IIE S82D phospho-mimicry variant (enzyme, UniProt Q949U7 71-234) ASISVGDKLPDDTLSYLDPSTGDVKTVTVSSLTAGKKTILFAVPGAFTPTCSQKHVPGFVSKAGELRSKGIDVIACISVNDAFVMEAWRKDLGINDEVMLLSDGNGEFTGKLGVELDLRDKPVGLGVRSRRYAILADDGVVKVLNLEEGGAFTNSSAEDMLKAL	binds
PRX-IIE T108E phospho-mimicry variant (enzyme, UniProt Q949U7 71-234) ASISVGDKLPDSTLSYLDPSTGDVKTVTVSSLTAGKKEILFAVPGAFTPTCSQKHVPGFVSKAGELRSKGIDVIACISVNDAFVMEAWRKDLGINDEVMLLSDGNGEFTGKLGVELDLRDKPVGLGVRSRRYAILADDGVVKVLNLEEGGAFTNSSAEDMLKAL	binds
